Assay results: paper PMC5996148
The list shows a part of the results. For some of these results: The source does not settle which construct or isoform was used.

Experiments:
Experiment in all cases: protein microarray (ProtoArray v5.0), streptavidin-Alexa Fluor 647
Details in all cases: 3'-biotin; 20 mM Tris (pH 7.5), 5 mM MgCl2, 100 mM KCl, 0.1% Tween-20, A/T-rich and random oligonucleotide blockers; temperature not stated; high values mean tight binding
TSR2 (human) = system: TSR2 (human)
TTC1 (human) = system: TTC1 (human)
TTC32 (human) = system: TTC32 (human)
TTC8 (human) = system: TTC8 (human)
TTLL7 = target: T1, TTLL7 (UniProt Q6ZT98)
T1 sequence: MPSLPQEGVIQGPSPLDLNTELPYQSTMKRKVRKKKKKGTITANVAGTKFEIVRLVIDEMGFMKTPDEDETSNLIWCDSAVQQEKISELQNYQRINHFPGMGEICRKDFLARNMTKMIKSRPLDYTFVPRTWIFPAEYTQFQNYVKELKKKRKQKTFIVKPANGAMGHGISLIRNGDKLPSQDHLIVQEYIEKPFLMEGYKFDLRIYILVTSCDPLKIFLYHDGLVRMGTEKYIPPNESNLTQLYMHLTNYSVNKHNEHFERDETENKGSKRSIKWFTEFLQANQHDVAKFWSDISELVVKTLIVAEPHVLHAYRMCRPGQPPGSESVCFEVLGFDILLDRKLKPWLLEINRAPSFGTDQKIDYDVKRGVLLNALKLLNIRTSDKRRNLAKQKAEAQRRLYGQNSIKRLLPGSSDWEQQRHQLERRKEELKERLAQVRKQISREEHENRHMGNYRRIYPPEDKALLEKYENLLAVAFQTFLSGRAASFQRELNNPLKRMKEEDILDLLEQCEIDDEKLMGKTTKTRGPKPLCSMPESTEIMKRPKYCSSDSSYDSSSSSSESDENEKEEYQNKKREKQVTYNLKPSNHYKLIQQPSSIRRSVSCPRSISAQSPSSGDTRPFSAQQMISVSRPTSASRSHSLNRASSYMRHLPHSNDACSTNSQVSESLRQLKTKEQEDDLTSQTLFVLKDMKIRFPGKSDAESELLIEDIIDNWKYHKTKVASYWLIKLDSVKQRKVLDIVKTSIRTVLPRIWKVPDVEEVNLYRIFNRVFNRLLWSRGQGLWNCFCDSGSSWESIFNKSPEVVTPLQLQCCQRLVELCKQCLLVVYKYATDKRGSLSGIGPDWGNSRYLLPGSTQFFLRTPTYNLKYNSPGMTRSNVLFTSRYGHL

TTR (human) = system: TTR (human)
TTYH2 (human) = system: TTYH2 (human)
TUBA3E (human) = system: TUBA3E (human)
TUBB (human) = system: TUBB (human)
TXN2 (human) = system: TXN2 (human)

GGTGACAGGGGTATGGGGAGGGG [G4-2 biotinylated (Ct1)]
binding signal (TSR2 (human)): -0.395 z-score
binding signal (TTC1 (human)): -0.378 z-score
binding signal (TTC32 (human)): -0.37 z-score
binding signal (TTC8 (human)): -0.391 z-score
binding signal (TTLL7): 4.63 z-score
binding signal (TTR (human)): -0.36 z-score
binding signal (TTYH2 (human)): -0.387 z-score
binding signal (TUBA3E (human)): -0.391 z-score
binding signal (TUBB (human)): -0.376 z-score
binding signal (TXN2 (human)): -0.372 z-score
